Data as given in PubChem BioAssay AID1053208 (Peter MacCallum Cancer Centre, 2014).

- Screen: 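Find knock-downs that sensitise mouse osteosarcoma cells to doxorubicin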 (primary screen)
- Cells: mouse osteosarcoma cells, early-passage culture from an engineered mouse model of fibroblastic bone tumour
- Reagents: siRNA pool against mouse genes, 40 nM
- Timing: about 120 h (48 h before drug, then 72 h with drug)
- Treatment: doxorubicin 100 nM for 72 h, roughly 30-40% inhibitory dose
- Measurement: 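Viability read as ATP luminescence after 72 h of 100 nM doxorubicin or none, duplicate wells averaged, scaled to non-targeting siRNA, then expressed as robust z-scores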
- Direction: viability z-score with doxorubicin and doxorubicin viability vs non-targeting: higher = more viable cells under doxorubicin; viability z-score without drug: higher = more viable cells with knock-down alone; z-score of drug to no-drug ratio: higher = less drug sensitisation by knock-down
- Active means: 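Called active if knock-down leaves viability unchanged without drug (z within -2 to 2) but lowers it with doxorubicin (z at or under -2)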
The deposit covers about 17,000 reagents; shown is a random part of them. Over the whole deposit, 788 (4.7%) were called active. 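Calls rest on z-score classes alone; an extra cut-off of viability at most 70% of control was not applied to them.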 A number with no mark means an inactive call.

| Gene | combined z-score class | viability z-score with doxorubicin | viability z-score without drug | z-score of drug to no-drug ratio | doxorubicin viability vs non-targeting |
| --- | --- | --- | --- | --- | --- |
| Ift20 | no change with or without drug | 0.79 | 1.52 | -0.11 | 1.01 |
| Gfpt2 | high cell count without drug only | 1.8 | 2.19 | 0.45 | 1.1 |
| Sdhaf4 | high cell count without drug only | 1.57 | 2.87 | -0.22 | 1.08 |
| Gm4894 | no change with or without drug | 0 | 0.34 | -0.11 | 0.94 |
| Xpnpep3 | no change with or without drug | 0.34 | 0.34 | 0.22 | 0.97 |
| Pdcd2 | no change with or without drug | 1.24 | 0.17 | 1.24 | 1.05 |
| Or52s19 | no change with or without drug | -0.79 | -1.52 | 0.34 | 0.87 |
| Or1r1 | no change with or without drug | 1.24 | 0.84 | 0.79 | 1.05 |
| Vmn1r192 | no change with or without drug | 0.56 | 0.34 | 0.45 | 0.99 |
| Pkm | no change with or without drug | 0.34 | -0.84 | 1.12 | 0.97 |
| Alkbh6 | no change with or without drug | -1.57 | 0.51 | -1.8 | 0.8 |
| Snap23 | no change with or without drug | -0.56 | -0.51 | -0.11 | 0.89 |
| Rbmx2 | no change with or without drug | 1.12 | 1.18 | 0.45 | 1.04 |
| Zdhhc19 | no change with or without drug | 1.57 | 1.18 | 0.9 | 1.08 |
| Six3os1 | no change with or without drug | 0 | 0.84 | -0.45 | 0.94 |
| Magoh | low cell count with doxorubicin only (active) | -2.02 | -1.01 | -1.46 | 0.76 |
| 1700029H14Rik | no change with or without drug | 0.79 | 0.17 | 0.79 | 1.01 |
| Gmcl1 | no change with or without drug | -1.24 | 1.18 | -1.91 | 0.83 |
| Slc25a40 | no change with or without drug | -0.22 | 1.01 | -0.79 | 0.92 |
| Fam120c | no change with or without drug | 0 | -0.51 | 0.45 | 0.94 |
| Il1rapl2 | no change with or without drug | -0.56 | -1.18 | 0.34 | 0.89 |
| Or5w18 | no change with or without drug | 1.91 | 0 | 2.14 | 1.11 |
| Dut | no change with or without drug | 1.24 | 0.67 | 0.9 | 1.05 |
| Or5b123 | no change with or without drug | 1.12 | -1.01 | 2.14 | 1.04 |
| Trub1 | no change with or without drug | 0.67 | -1.01 | 1.57 | 1 |
| Zmat5 | no change with or without drug | 0 | -0.84 | 0.67 | 0.94 |
| Trpm5 | no change with or without drug | -0.22 | 0.34 | -0.34 | 0.92 |
| Tax1bp3 | no change with or without drug | 0.11 | -0.34 | 0.45 | 0.95 |
| Ppp2r5b | no change with or without drug | 1.57 | -0.17 | 1.91 | 1.08 |
| Atxn10 | no change with or without drug | 1.35 | -0.17 | 1.69 | 1.06 |
| Vcan | no change with or without drug | 1.35 | 0.34 | 1.24 | 1.06 |
| 4933436I01Rik | no change with or without drug | -0.11 | 0.51 | -0.34 | 0.93 |
| H2-Q5 | no change with or without drug | -0.22 | -0.67 | 0.34 | 0.92 |
| Thnsl2 | no change with or without drug | -0.56 | -0.17 | -0.34 | 0.89 |
